{"source": "PubChem BioAssay AID248", "about": "(DTP/NCI, 2004)", "test_system": "L1210 leukemia ip in BDF1 mice, survival T/C", "experiment": "NCI In Vivo Anticancer Drug Screen. Data for tumor model L1210 Leukemia (intraperitoneal) in B6D2F1 (BDF1) mice", "settings": "T/C endpoint: mean survival time, higher T/C = longer survival; for T/C: schedule: Q04DX002 (ip)", "key": {"[1]": {"settings": "dose: 400.0 mg/kg/injection, schedule: Q04DX003 (ip), vehicle: Klucel (hydroxypropylcellulose) (HPC)"}}, "note": "The list is a part of this screen's results and no random one: it gathers tests that were run many times, whatever their T/C, doses with no T/C, and many T/C values between a quarter and a half above the control. Further doses and runs are listed elsewhere. T/C is the treated group as % of the vehicle group. Some doses have a count of surviving animals in place of a T/C: the source files T/C as zero there, which appears to mark a toxic dose or a test without result, not a measured value. Some doses without a T/C left all or most animals alive at the check, yet need not have been tolerated: survival well below the control is almost never listed, so the zero probably covers shortened survival too. Survivors were counted at the toxicity check, usually on the fifth day, unless a day is given; later deaths do not show. Schedule codes are those of the source, read here as Q, the interval in days (D) or hours (H), X, the number of doses. For survival time, this PubChem deposit counts one and a half times the control or more as active, and values a quarter to a half above the control carry no call in these data; other NCI protocols may use other cut-offs. Some T/C values carry the count of animals alive at the toxicity check (mostly the fifth day); where none is given, no animal had died by that day. Some entries hold several experiments; the results are listed from low to high. Brackets with × stand for listed records that agree."}
{"compound": "CC(C)(C)C1CCC(NC(=O)C(Cl)Cl)CC1", "note": "(stereo not drawn)", "values": [{"measurement": "survivor count", "setting": "dose: 200.0 mg/kg/injection, schedule: Q04DX003 (ip), vehicle: Klucel (hydroxypropylcellulose) (HPC)", "result": "0 of 6"}, {"measurement": "survivor count", "setting": "[1]", "result": "0 of 6"}]}
{"compound": "Cc1cccc(NCc2ccc(Cl)cc2Cl)c1", "values": [{"measurement": "survivor count", "setting": "dose: 200.0 mg/kg/injection, schedule: Q04DX003 (ip), vehicle: saline with Tween-80", "result": "6 of 6"}]}
{"compound": "O=C(O)c1c(F)c(F)c(Oc2c(F)c(F)c(F)c(F)c2F)c(F)c1F", "values": [{"measurement": "survivor count", "setting": "[1]", "result": "6 of 6"}]}
{"compound": "CCN1CCC2=C(CCCC2O)C1", "note": "(stereo not drawn)", "values": [{"measurement": "survivor count", "setting": "dose: 300.0 mg/kg/injection, schedule: Q01DX001 (ip), vehicle: steroid suspending solution", "result": "3 of 6"}]}
{"compound": "Cn1cnc(N)c1/C(N)=N/O", "values": [{"measurement": "survivor count", "setting": "dose: 50.0 mg/kg/injection, schedule: Q01DX005 (ip), vehicle: saline", "result": "4 of 6"}, {"measurement": "survivor count", "setting": "dose: 100.0 mg/kg/injection, schedule: Q01DX005 (ip), vehicle: saline", "result": "4 of 6"}, {"measurement": "survivor count", "setting": "dose: 200.0 mg/kg/injection, schedule: Q01DX005 (ip), vehicle: saline", "result": "0 of 6"}, {"measurement": "survivor count", "setting": "dose: 400.0 mg/kg/injection, schedule: Q01DX005 (ip), vehicle: saline", "result": "0 of 6"}]}
{"compound": "O=C(Nc1ccc([N+](=O)[O-])cn1)Nc1ccccc1F", "values": [{"measurement": "T/C", "setting": "dose: 100.0 mg/kg/injection, vehicle: Klucel (hydroxypropylcellulose) (HPC)", "result": "89, 98 (2×), 102 % of control"}, {"measurement": "T/C", "setting": "dose: 200.0 mg/kg/injection, vehicle: Klucel (hydroxypropylcellulose) (HPC)", "result": "100, 100 [2 of 3 alive], 115, 148 % of control"}, {"measurement": "T/C", "setting": "dose: 400.0 mg/kg/injection, vehicle: Klucel (hydroxypropylcellulose) (HPC)", "result": "91 [2 of 3 alive], 104, 107, 108 % of control"}]}
{"compound": "Cc1cccc(NC(=O)/C=N/O)c1C", "values": [{"measurement": "survivor count", "setting": "dose: 300.0 mg/kg/injection, schedule: Q04DX003 (ip), vehicle: Klucel (hydroxypropylcellulose) (HPC)", "result": "5 of 6"}]}
